Results as given in PMC13321232.
These are yes or no findings as the source states them, for the method shown. Binding seen in cells or lysates may run through a third protein. Some results given as binding are weak or reduced against the parent protein; the word gives no strength. Sequences can lack the tags named with a protein.

Columns and labels:
Test in all cases: co-IP; FLAG- and HA-tagged proteins cotransfected into Arabidopsis protoplasts from root cell suspension cultures; 10 µM MG132 for 6 h; lysis in 50 mM Tris-HCl pH 7.6, 150 mM NaCl, 1% NP-40, 0.1% SDS; anti-FLAG (anti-DYKDDDDK) or anti-HA magnetic beads, 4 °C; western blot
[1] = biological target: T1, ER-HA (Arabidopsis thaliana) (UniProt Q42371)
T1 sequence: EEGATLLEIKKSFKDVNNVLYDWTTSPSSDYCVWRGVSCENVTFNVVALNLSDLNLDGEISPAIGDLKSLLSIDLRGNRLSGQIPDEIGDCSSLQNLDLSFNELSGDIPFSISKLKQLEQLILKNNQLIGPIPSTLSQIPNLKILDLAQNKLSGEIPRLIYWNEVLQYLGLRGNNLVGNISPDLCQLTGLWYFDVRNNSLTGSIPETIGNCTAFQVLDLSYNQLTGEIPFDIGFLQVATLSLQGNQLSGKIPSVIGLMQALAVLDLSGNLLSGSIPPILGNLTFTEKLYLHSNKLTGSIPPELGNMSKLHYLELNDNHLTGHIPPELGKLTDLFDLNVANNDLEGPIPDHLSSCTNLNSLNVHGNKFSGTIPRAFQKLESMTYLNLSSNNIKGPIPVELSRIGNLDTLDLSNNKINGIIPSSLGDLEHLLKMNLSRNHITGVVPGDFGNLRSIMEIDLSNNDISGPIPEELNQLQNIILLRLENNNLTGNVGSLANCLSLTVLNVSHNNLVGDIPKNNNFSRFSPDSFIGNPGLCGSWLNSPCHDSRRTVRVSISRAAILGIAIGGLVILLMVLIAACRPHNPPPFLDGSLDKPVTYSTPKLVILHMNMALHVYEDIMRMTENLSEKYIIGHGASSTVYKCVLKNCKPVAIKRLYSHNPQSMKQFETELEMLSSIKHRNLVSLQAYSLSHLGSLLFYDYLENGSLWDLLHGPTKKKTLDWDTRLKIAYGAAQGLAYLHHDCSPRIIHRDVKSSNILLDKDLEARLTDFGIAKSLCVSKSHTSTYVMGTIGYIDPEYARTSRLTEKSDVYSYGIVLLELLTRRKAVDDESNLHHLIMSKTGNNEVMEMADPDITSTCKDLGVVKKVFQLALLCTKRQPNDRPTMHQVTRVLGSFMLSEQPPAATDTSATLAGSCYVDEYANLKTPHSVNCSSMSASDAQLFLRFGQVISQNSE

[2] = biological target: T2, ERL2-HA (Arabidopsis thaliana) (UniProt Q6XAT2)
T2 sequence: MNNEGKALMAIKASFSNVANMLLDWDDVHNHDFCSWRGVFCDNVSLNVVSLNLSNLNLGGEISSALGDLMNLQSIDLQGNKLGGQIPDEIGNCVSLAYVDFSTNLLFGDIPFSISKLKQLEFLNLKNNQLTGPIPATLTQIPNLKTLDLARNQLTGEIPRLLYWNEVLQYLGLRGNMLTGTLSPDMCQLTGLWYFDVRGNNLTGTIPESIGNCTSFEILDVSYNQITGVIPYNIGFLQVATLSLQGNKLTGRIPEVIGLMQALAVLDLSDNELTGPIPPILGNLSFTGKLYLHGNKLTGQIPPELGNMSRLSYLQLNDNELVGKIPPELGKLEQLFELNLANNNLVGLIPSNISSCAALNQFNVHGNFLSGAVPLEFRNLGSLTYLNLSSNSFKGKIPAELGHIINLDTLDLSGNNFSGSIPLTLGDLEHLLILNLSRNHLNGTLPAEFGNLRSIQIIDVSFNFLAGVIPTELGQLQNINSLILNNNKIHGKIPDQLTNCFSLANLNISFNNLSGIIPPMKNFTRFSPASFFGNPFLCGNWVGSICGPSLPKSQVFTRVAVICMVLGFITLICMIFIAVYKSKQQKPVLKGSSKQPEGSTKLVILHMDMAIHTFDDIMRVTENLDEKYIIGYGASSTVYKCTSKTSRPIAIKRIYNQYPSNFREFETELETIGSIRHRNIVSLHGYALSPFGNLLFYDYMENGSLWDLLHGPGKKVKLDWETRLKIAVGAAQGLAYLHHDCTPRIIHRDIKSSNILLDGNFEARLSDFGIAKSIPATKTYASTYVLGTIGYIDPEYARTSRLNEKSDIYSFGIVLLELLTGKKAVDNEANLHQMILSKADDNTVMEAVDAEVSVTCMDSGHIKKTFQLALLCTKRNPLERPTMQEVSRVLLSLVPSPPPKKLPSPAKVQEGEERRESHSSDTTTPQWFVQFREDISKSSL

[3] = biological target: T3, ERL1-HA (Arabidopsis thaliana) (UniProt C0LGW6)
T3 sequence: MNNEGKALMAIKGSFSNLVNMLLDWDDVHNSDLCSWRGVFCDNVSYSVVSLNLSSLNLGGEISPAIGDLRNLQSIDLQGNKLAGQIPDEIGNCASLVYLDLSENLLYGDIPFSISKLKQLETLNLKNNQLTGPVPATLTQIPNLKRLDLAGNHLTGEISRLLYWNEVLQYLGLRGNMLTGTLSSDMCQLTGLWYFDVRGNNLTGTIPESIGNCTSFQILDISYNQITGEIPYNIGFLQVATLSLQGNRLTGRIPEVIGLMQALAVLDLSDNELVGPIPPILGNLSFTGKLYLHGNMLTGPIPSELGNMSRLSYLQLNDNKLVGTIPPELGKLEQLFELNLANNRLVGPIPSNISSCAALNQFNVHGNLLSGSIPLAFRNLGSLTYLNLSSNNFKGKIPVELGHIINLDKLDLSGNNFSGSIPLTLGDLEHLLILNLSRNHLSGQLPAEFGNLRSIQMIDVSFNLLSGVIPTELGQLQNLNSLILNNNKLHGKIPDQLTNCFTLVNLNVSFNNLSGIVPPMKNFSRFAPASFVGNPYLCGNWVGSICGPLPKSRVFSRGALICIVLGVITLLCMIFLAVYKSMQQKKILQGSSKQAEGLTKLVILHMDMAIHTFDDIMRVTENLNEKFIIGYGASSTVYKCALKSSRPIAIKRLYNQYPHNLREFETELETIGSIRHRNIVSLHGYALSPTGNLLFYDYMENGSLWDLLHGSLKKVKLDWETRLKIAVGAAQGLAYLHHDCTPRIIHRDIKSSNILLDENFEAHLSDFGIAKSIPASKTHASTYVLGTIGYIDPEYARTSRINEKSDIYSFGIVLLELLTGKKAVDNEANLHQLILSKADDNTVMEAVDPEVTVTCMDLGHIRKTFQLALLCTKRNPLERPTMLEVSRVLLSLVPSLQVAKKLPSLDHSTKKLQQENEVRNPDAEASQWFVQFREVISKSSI

Measured: binding

B1: PXL1-flag (receptor, UniProt Q9FRS6 24-1029)
chain: ETFQNSEQEILLAFKSDLFDPSNNLQDWKRPENATTFSELVHCHWTGVHCDANGYVAKLLLSNMNLSGNVSDQIQSFPSLQALDLSNNAFESSLPKSLSNLTSLKVIDVSVNSFFGTFPYGLGMATGLTHVNASSNNFSGFLPEDLGNATTLEVLDFRGGYFEGSVPSSFKNLKNLKFLGLSGNNFGGKVPKVIGELSSLETIILGYNGFMGEIPEEFGKLTRLQYLDLAVGNLTGQIPSSLGQLKQLTTVYLYQNRLTGKLPRELGGMTSLVFLDLSDNQITGEIPMEVGELKNLQLLNLMRNQLTGIIPSKIAELPNLEVLELWQNSLMGSLPVHLGKNSPLKWLDVSSNKLSGDIPSGLCYSRNLTKLILFNNSFSGQIPEEIFSCPTLVRVRIQKNHISGSIPAGSGDLPMLQHLELAKNNLTGKIPDDIALSTSLSFIDISFNHLSSLSSSIFSSPNLQTFIASHNNFAGKIPNQIQDRPSLSVLDLSFNHFSGGIPERIASFEKLVSLNLKSNQLVGEIPKALAGMHMLAVLDLSNNSLTGNIPADLGASPTLEMLNVSFNKLDGPIPSNMLFAAIDPKDLVGNNGLCGGVLPPCSKSLALSAKGRNPGRIHVNHAVFGFIVGTSVIVAMGMMFLAGRWIYTRWDLYSNFAREYIFCKKPREEWPWRLVAFQRLCFTAGDILSHIKESNIIGMGAIGIVYKAEVMRRPLLTVAVKKLWRSPSPQNDIEDHHQEEDEEDDILREVNLLGGLRHRNIVKILGYVHNEREVMMVYEYMPNGNLGTALHSKDEKFLLRDWLSRYNVAVGVVQGLNYLHNDCYPPIIHRDIKSNNILLDSNLEARIADFGLAKMMLHKNETVSMVAGSYGYIAPEYGYTLKIDEKSDIYSLGVVLLELVTGKMPIDPSFEDSIDVVEWIRRKVKKNESLEEVIDASIAGDCKHVIEEMLLALRIALLCTAKLPKDRPSIRDVITMLAEAKPRRKSVCQVAGDLPIFRNSPVVGLI
binds: all assays above

B2: PXL2-flag (receptor, UniProt Q9M0G7 24-1013)
chain: SIDNVNELSVLLSVKSTLVDPLNFLKDWKLSDTSDHCNWTGVRCNSNGNVEKLDLAGMNLTGKISDSISQLSSLVSFNISCNGFESLLPKSIPPLKSIDISQNSFSGSLFLFSNESLGLVHLNASGNNLSGNLTEDLGNLVSLEVLDLRGNFFQGSLPSSFKNLQKLRFLGLSGNNLTGELPSVLGQLPSLETAILGYNEFKGPIPPEFGNINSLKYLDLAIGKLSGEIPSELGKLKSLETLLLYENNFTGTIPREIGSITTLKVLDFSDNALTGEIPMEITKLKNLQLLNLMRNKLSGSIPPAISSLAQLQVLELWNNTLSGELPSDLGKNSPLQWLDVSSNSFSGEIPSTLCNKGNLTKLILFNNTFTGQIPATLSTCQSLVRVRMQNNLLNGSIPIGFGKLEKLQRLELAGNRLSGGIPGDISDSVSLSFIDFSRNQIRSSLPSTILSIHNLQAFLVADNFISGEVPDQFQDCPSLSNLDLSSNTLTGTIPSSIASCEKLVSLNLRNNNLTGEIPRQITTMSALAVLDLSNNSLTGVLPESIGTSPALELLNVSYNKLTGPVPINGFLKTINPDDLRGNSGLCGGVLPPCSKFQRATSSHSSLHGKRIVAGWLIGIASVLALGILTIVTRTLYKKWYSNGFCGDETASKGEWPWRLMAFHRLGFTASDILACIKESNMIGMGATGIVYKAEMSRSSTVLAVKKLWRSAADIEDGTTGDFVGEVNLLGKLRHRNIVRLLGFLYNDKNMMIVYEFMLNGNLGDAIHGKNAAGRLLVDWVSRYNIALGVAHGLAYLHHDCHPPVIHRDIKSNNILLDANLDARIADFGLARMMARKKETVSMVAGSYGYIAPEYGYTLKVDEKIDIYSYGVVLLELLTGRRPLEPEFGESVDIVEWVRRKIRDNISLEEALDPNVGNCRYVQEEMLLVLQIALLCTTKLPKDRPSMRDVISMLGEAKPRRKSNSNEENTSRSLAEKHSSVFSTSPVNGLL
binds: all assays above
